For at least one entry, the source does not settle the construct or the ends of the probe. For some assays here: Weaker means in comparison with the reference protein, sequence or condition of that experiment.
Legend:
[1] = system: S114A-UVI31+ (Chlamydomonas reinhardtii); assay: NMR; conditions: minimal CSPs compared with wild type; NMR: 50 mM Na-phosphate, 50 mM NaCl, pH 6.4, 25 C; recombinant protein; protein details: N-terminal His tag, as wild type
[2] = system: UVI31+ (wild type) (Chlamydomonas reinhardtii); assay: NMR; conditions: significant CSPs (A35 K37 F49 K50 K57 H58 A59 H76 L79 K118 T119); NMR: 50 mM Na-phosphate, 50 mM NaCl, pH 6.4, 25 C; recombinant protein; protein details: N-terminal MRGSHHHHHHGS

“CGCGAATTCGCG (double strand) [12-mer self-complementary ds-DNA]”: binds more weakly [1]; binds [2].
